These are yes or no findings as the source states them, for the method shown. Binding seen in cells or lysates may run through a third protein. Binding calls can cover weak binding; strength is not graded here. Sequences can lack the tags named with a protein.

The experiment concerns the target FLAG-tagged TRAF3. The experiment in a line: summary of the first series (co-immunoprecipitation).

B1: myc-tagged TREX (protein, not shown: small tags and cut ends)
chain: MTGYTMLRNGGVGNGGQTCMLRWSNRIRLTWLSFTLFIILVFFPLIAHYYLTTLDEADEAGKRIFGPRAGSELCEVKHVLDLCRIRESVSEELLQLEAKRQELNSEIAKLNLKIEACKKSIENAKQDLLQLKNVISQTEHSYKELMAQNQPKLSLPIRLLPEKDDAGLPPPKVTRGCRLHNCFDYSRCPLTSGFPVYVYDSDQFAFGSYLDPLVKQAFQATVRANVYVTENAAIACLYVVLVGEMQEPTVLRPADLEKQLFSLPHWRTDGHNHVIINLSRKSDTQNLLYNVSTGRHVAQSTLYAAQYRAGFDLVVSPLVHAMSEPNFMEIPPQVPVKRKYLFTFQGEKIESLRSSLQEARSFEEEMEGDPPADYDDRIIATLKAVQDSKLDQVLVEFTCKNQPKPSLPTEWALCGEREDRLELLKLSTFALIITPGDPRLLISSGCATRLFEALEVGAVPVVLGEQVQLPYHDMLQWNEAALVVPKPRVTEVHFLLRSLSDSDLLAMRRQGRFLWETYFSTADSIFNTVLAMIRTRIQIPAAPIREEVAAEIPHRSGKAAGTDPNMADNGDLDLGPVETEPPYASPKYLRNFTLTVTDCYRGWNSAPGRFHLFPHTPFDPVLPSEAKFLGSGTGFRPIGGGAGGSGKEFQAALGGNVQREQFTVVMLTYEREEVLMNSLERLNGLPYLNKVVVVWNSPKLPSEDLLWPDIGVPIMVVRTEKNSLNNRFLPWNEIETEAILSIDDDAHLRHDEIMFGFWVWREARDRIVGFPGRYHAWDIPHQSWLYNSNYSCELSMVLTGAAFFHKYYAYLYSYVMPQAIRDMVDEYINCEDIAMNFLVSHITRKPPIKVTSRWTFRCPGCPQALSHDDSHFHERHKCINFFVKVYGYMPLLYTQFRVDSVLFKTRLPHDKTKCFKFI
With B1, the binding entry is given as “binds”.

For the origin of these results see patent US20030139584A1.
